Assay results published in US6469138B1, “Thrombospondin receptor binding peptides” (Washington University, priority 1993, dated 2002).
Part of at least one peptide drawing is inferred or uncertain, most often the ends. Where a SMILES comes first, the peptide text is derived from it.

Key:
Format in all cases: cell-based, human
G361 cells [1] = assay: Inhibition by soluble peptides of G361 cell attachment to immobilized rCBD of TS1; conditions: for inhibition of G361 cell attachment to rCBD-coated surfaces: rCBD 10 μg/ml immobilized, soluble peptide, combinations: each peptide at ½ the indicated concentration; for inhibition of G361 cell attachment to rCBD (in words): soluble peptide inhibitor, immobilized rCBD
Procedure: FIGS. 3A and 3B show the effect of the active subpeptides of C4 and C7 on G361 cell attachment to the rCBD of TS1. To microtiter wells containing immobilized rCBD (10 μg/ml), G361 cells were added with (FIG. 3A) 4N1-1 (●), 7N3-1 (▪), 4N1-1 plus 7N3-1 (▴) and with (FIG. 3B) 4N1 (▪), 7N3 (●) and 4N1 plus 7N3 (▴). The cells were incubated for 1.5 hr in the wells and cell attachment was determined. The effects of these subpeptides on cell attachment are expressed as percent relative to the maximum cell attachment for each test where 100% is the number of cells binding to rCBD-coated well in the absence of peptide inhibitors.
(§1) After blocking, cells were allowed to attach for 1 hr at 37° C. to substrate-coated wells or beads. In some tests, inhibition was determined by adding peptide inhibitors of cell attachment to each well along with the cells. After removal of non-adhering cells, cells attached to immobilized substrates were quantitated with endogenous cellular phosphatase activity which is measured by absorption at 410 nm as previously described (Prater et al., 1991). Each assay was carried out in duplicate and each peptide was tested in 3 separate tests at 3 or more different concentrations.
To be sure that the active peptides from C4 and C7 contain the sequences that are relevant for attachment of cells to the CBD, the shorter, more soluble active peptides were tested as soluble inhibitors of the binding of G361 cells to rCBD immobilized on plastic wells. […] In contrast, 4N1-1 and 4N1, the active subpeptides for C4, are insoluble at concentrations higher than 0.2 mM and thus must be tested as soluble inhibitors at concentrations below this solubility limit. It should be noted that inclusion of peptides in the cell attachment assay at these concentrations had no adverse effects on the cells. The results of this complementary bioassay confirmed those of the direct cell adhesion assays (FIGS. 1 and 2). […] The inhibition was dose-dependent at peptide concentrations <0.1 mM for 4N1 and 7N3 and <0.2 mM for 4N1-1 and 7N3-1. […] Each peptide is present at ½ the indicated concentration. In the case of 4N1 plus 7N3, the inhibition was nearly complete (87%). […] To evaluate the contribution of adjacent sequences to activity, peptide 7N2-2 which contained the N-terminal sequence of 7N3-1, and 7N3-1 were examined in inhibition studies.

G361 cells [2] = assay: Direct attachment of G361 cells to peptides adsorbed on microtiter wells (cell adhesion assay); conditions: for cell attachment activity (direct attachment of G361 cells to immobilized peptide): peptide adsorbed to plastic wells, cells 1 hr at 37° C., in words
Procedure: Equimolar concentrations of peptides shown in FIG. 1A were evaluated as attachment factors for G361 cells. Peptides C4 (¤), 4N (●), 4N1 (▴), 4N1-1 (♦), 4N2 (▪) and 4C ([formula]) were adsorbed to microtiter plates at the indicated concentrations. Cells were added to the wells and incubated for 1 hour at 37° C. The attached cells were quantitated as described under “Materials and Methods” hereinbelow, and the actual absorbance due to endogenous cellular phosphatase hydrolysis of p-Nitrophenyl phosphate at 410 nm is plotted.
Microtiter wells were adsorbed with peptides C7 (▪), 7N (●), 7N3 (▴), 7N3-1 (♦), 7N2 (▪), 7N2-2 (∘), 7N3-2 (▴) and 7C, 7N1 or 7N2-1 ([formula]) at various concentrations and the attachment of G361 cells was determined. The numbers of cells attached to these peptides were correlated with the cellular phosphatase activity which is expressed as absorbance at 410 nm.
Cell Adhesion Assay—Cell adhesion was performed in 96-well plates by conventional procedures as previously described (Prater et al., 1991; Kosfeld and Frazier, 1992). Synthetic peptides were solubilized with 6 N guanidine HCl (GnHCl) because some hydrophobic peptides were insoluble at concentrations approaching 1 mM in TBS. The peptides were coated onto plastic 96 well plates (Nunc Immuno Plate Maxisorp) by incubating 50 μl of peptide solutions per well at the indicated concentrations. After incubating overnight at room temperature, wells were rinsed with TBS and blocked with 10 mg/ml bovine serum albumin (BSA) for 30 minutes at room temperature. […] The efficiency of coupling of all peptides was greater than 90% as judged by UV absorbance. […]
as §1, with “Each assay was carried out in duplicate and each peptide was tested in 3 separate tests at 3 or more different concentrations.” left out

G361 cells [3] = assay: Inhibition by soluble peptides of G361 cell attachment to LM-coated wells; conditions: soluble peptide
K562 cells = assay: Inhibition by soluble peptides of K562 cell attachment to immobilized rCBD of TS1; conditions: rCBD 10 μg/ml per well; soluble peptide

| SMILES | inhibition of G361 cell attachment to rCBD-coated surfaces (G361 cells [1]) | cell attachment activity (direct attachment of G361 cells to immobilized peptide) (G361 cells [2]) | inhibition of G361 cell attachment to rCBD (in words) (G361 cells [1]) | maximum cell attachment activity retained relative to 4N1 (G361 cells [2]; G361 cells, relative to maximum activity of 4N1) [%] | inhibition of G361 cell attachment to LM (G361 cells [3]) [%] | inhibition of K562 cell attachment to rCBD (K562 cells) [%] | inhibitory effect on G361 cell attachment to rCBD at 2 mM compared to 0.2 mM (G361 cells [1]; peptide tested at 2 mM) |
| --- | --- | --- | --- | --- | --- | --- | --- |
| CSCC[C@H](NC(=O)[C@@H](NC(=O)[C@@H](NC(=O)[C@H](Cc1ccc(O)cc1)NC(=O)[C@H](Cc1ccccc1)NC(=O)[C@@H](N)CCCNC(=N)N)C(C)C)C(C)C)C(=O)N[C@@H](Cc1c[nH]c2ccccc12)C(=O)N[C@@H](CCCCN)C(=O)N[C@@H](CCC(N)=O)C(=O)N[C@H](C(=O)N[C@H](C(=O)N[C@@H](CCC(N)=O)C(=O)N[C@@H](CO)C(=O)O)[C@@H](C)O)C(C)C [4N1, Arg-Phe-Tyr-Val-Val-Met-Trp-Lys-Gln-Val-Thr-Gln-Ser] (H-RFYVVMWKQVTQS-OH; N-terminus and C-terminus assumed) | about 30% | significantly greater cell binding activity than peptide 4N2 |  |  |  |  |  |
| CSCC[C@H](NC(=O)[C@@H](NC(=O)[C@@H](NC(=O)[C@H](Cc1ccc(O)cc1)NC(=O)[C@H](Cc1ccccc1)NC(=O)[C@@H](N)CCCNC(=N)N)C(C)C)C(C)C)C(=O)N[C@@H](Cc1c[nH]c2ccccc12)C(=O)N[C@@H](CCCCN)C(=O)O [4N1-1, Arg-Phe-Tyr-Val-Val-Met-Trp-Lys] | 30% |  | comparable | 60 | 32 | 36 |  |
| CC[C@H](C)[C@H](N)C(=O)N[C@@H](CCCNC(=N)N)C(=O)N[C@H](C(=O)N[C@H](C(=O)N[C@@H](CCSC)C(=O)O)C(C)C)C(C)C [7N3-1, Ile-Arg-Val-Val-Met] (H-IRVVM-OH; N-terminus and C-terminus assumed) | 25% | comparable to that of 7N3 | not as active as 7N3 |  | 50 | 28 | no significant increase in inhibitory effect |
